Data published in patent US20240058403A1, “YEAST PARTICLES FOR DELIVERY OF WATER-ACTIVATED SELF-EMULSIFYING CANNABINOID FORMULATIONS” (UNIVERSITY OF MASSACHUSETTS, priority 2022, published 2024).
Some of these results come from one statement about several compounds together.

Legend:
[1] = Sustained simultaneous release of CBD and melatonin co-loaded in GLPs; type: physicochemical; settings: CBD and melatonin co-loaded (OA/glycofurol), GLPs embedded in dry glycerin; simulated saliva and tissue, 37° C.
[2] = Micelle size of CBD-SA-RA emulsions; type: physicochemical; settings: RA TRITON X100 20 % w/w

Row | SMILES | payload released from GLPs after four hours [1] | CBD-SA-RA micelle size (nm) [2]
1 | C=C(C)[C@@H]1CCC(C)=C[C@H]1c1c(O)cc(CCCCC)cc1O [CBD, cannabidiol, reference compound] | Up to 60% | 
2 | CCCCCCCC(=O)O [Octanoic acid] |  | < 100 nm
3 | COc1ccc2[nH]cc(CCNC(C)=O)c2c1 [melatonin] | Up to 60% | 
